Results reported in article PMC7066179.

Experiments:
[1] = target: BRAWNIN, untagged, over-expressed in HEK293T (human) (UniProt Q69YU5); test: affinity purification with mass spectrometry; HEK293T mitochondria solubilized in IP buffer (150 mM NaCl, 1 mM EDTA, 50 mM HEPES-KOH pH 7.4) with 1% DDM; BR antibody (Novus NBP1-90536) or rabbit IgG control overnight, protein A/G beads, washes with 0.5% DDM, elution with 0.1% Rapigest; TMT-labelled LC/MS; endogenous or over-expressed untagged BR as bait
[2] = target: BRAWNIN (endogenous, HEK293T mitochondria) (human (endogenous in HEK293T)) (UniProt Q69YU5); test: as above
[3] = target: BR-FLAG, over-expressed in HEK293T (human) (UniProt Q69YU5); test: affinity purification with mass spectrometry; mitochondria of HEK293T over-expressing BR-FLAG (untagged BR as control) solubilized in IP buffer with 1% DDM; anti-FLAG M2 resin overnight, elution with 0.1% Rapigest; TMT-labelled LC/MS

binding [1]: binds
binding [2]: binds
binding [3]: binds
B1: GHITM (endogenous, HEK293T mitochondria) (protein, UniProt Q9H3K2 46-345)
chain: ATKTRIGIRRGRTGQELKEAALEPSMEKIFKIDQMGRWFVAGGAAVGLGALCYYGLGLSNEIGAIEKAVIWPQYVKDRIHSTYMYLAGSIGLTALSAIAISRTPVLMNFMMRGSWVTIGVTFAAMVGAGMLVRSIPYDQSPGPKHLAWLLHSGVMGAVVAPLTILGGPLLIRAAWYTAGIVGGLSTVAMCAPSEKFLNMGAPLGVGLGLVFVSSLGSMFLPPTTVAGATLYSVAMYGGLVLFSMFLLYDTQKVIKRAEVSPMYGVQKYDPINSMLSIYMDTLNIFMRVATMLATGGNRKK

Results are given in words; binding and its absence hold for the method and conditions named. Binding seen in cells or lysates may run through a third protein. A yes stands for co-enrichment or nearness to the bait. Other partners may have been found.
